Data as given in paper PMC8635974.

The chains behind the UniProt entries cited, without tags or fusion partners. Where a name states a change or a piece, a line headed by the entry shows the natural chain unless it says otherwise.
UniProt P25098: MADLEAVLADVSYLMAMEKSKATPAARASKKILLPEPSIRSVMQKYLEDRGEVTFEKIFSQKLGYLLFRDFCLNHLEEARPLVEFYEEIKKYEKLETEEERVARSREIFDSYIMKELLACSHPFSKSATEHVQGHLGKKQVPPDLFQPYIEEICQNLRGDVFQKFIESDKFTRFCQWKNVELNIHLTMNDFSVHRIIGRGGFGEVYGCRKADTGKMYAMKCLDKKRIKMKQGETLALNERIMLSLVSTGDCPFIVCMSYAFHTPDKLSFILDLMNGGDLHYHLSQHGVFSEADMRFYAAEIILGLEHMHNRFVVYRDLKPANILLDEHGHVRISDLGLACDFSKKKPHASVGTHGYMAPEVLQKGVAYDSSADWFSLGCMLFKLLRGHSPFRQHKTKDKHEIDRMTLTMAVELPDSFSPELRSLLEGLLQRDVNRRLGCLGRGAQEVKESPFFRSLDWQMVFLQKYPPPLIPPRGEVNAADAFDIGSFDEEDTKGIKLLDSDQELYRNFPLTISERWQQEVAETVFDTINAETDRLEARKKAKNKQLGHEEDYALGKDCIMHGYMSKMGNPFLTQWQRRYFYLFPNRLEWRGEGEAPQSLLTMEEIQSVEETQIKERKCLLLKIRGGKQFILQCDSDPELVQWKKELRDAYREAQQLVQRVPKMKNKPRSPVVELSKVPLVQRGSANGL

Legend:
[1] = molecular target: M3R-mTurquoise (muscarinic acetylcholine receptor M3 with mTurquoise fused at the C-terminus) (UniProt P20309); experiment: FRET or BRET; single-cell FRET in HEK293T cells transfected with M3R-mTurquoise, pcDNA3, Gβ1, Gγ2 and GRK2-YFP (without Gαq overexpression); agonists ACh, Pilo, Are
[2] = molecular target: M3R-mTurquoise (muscarinic acetylcholine receptor M3 with mTurquoise fused at the C-terminus) (UniProt P20309); experiment: FRET or BRET; single-cell FRET between M3R-mTurq and GRK2-YFP (colour switch of the fluorophores) compared with M3R-YFP and GRK2-mTurq; amplitudes normalized to 30 µM ACh; co-transfected proteins not told for this panel

binding [1]: binds
binding [2]: binds
Substance: GRK2-YFP (G protein-coupled receptor kinase 2 with YFP fused to the C-terminus) (from UniProt P25098) (enzyme)

These are yes or no findings as the source states them, for the method shown. In cells and extracts the contact can be indirect. A result given as binding can be weak or reduced; the word gives no strength.
